The text below walks through data of PubChem BioAssay AID256 (DTP/NCI, 2004).

Each structure is given as a SMILES string. The list shows only some results of the screen, not a fair sample: it gathers tests that were run many times, whatever their T/C, doses with no T/C, and many T/C values between a quarter and a half above the control. Further doses and runs are listed elsewhere. T/C gives the treated animals as a percentage of the vehicle group. Some entries give survivors of the animals treated and no T/C: the source holds a T/C of zero for them, seemingly a mark for toxic or unscored doses. Some survivor counts are full or nearly so, which does not show that the dose was tolerated: survival well below the control is almost never listed, so the zero probably covers shortened survival too. Survivors were counted at the toxicity check, usually on the fifth day, unless a day is given; later deaths do not show. Schedule codes are those of the source, taken here to give the interval after Q, in days (D) or hours (H), and the number of doses after X. Some entries were tested several times; their values stand side by side, smallest first. Where survival is the endpoint, the PubChem record calls one and a half times the control and up active, and a quarter to a half above the control has no call in these data; cut-offs in other NCI protocols can differ. Some T/C values carry the count of animals alive at the toxicity check (mostly the fifth day); without a count, all were alive then.

This assay concerns CD2F1 mice, L1210 leukemia ip, survival T/C. Description: NCI In Vivo Anticancer Drug Screen. Data for tumor model L1210 Leukemia (intraperitoneal) in CD2F1 (CDF1) mice. As to conditions: higher T/C = longer survival. The method, boiled down: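 Implant tumor; dose compound or vehicle; measure endpoint in both groups; report treated divided by control.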
The mark [1] stands for this setting: T/C endpoint: mean survival time, dose: 200.0 mg/kg/injection, schedule: Q04DX003 (ip), vehicle: saline with Tween-80.
Setting [2] is: T/C endpoint: mean survival time, dose: 400.0 mg/kg/injection, schedule: Q01DX009 (ip), vehicle: saline with Tween-80.
The mark [3] stands for this setting: T/C endpoint: mean survival time, dose: 400.0 mg/kg/injection, schedule: Q04DX003 (ip), vehicle: saline with Tween-80.

For `C[C@H](N)C(=O)N[C@@H]1[C@H]2C(=C(O)C[C@@H](O)[C@@H]2O)C(=O)O[C@]1(C)C(Cl)Cl`, the T/C (T/C endpoint: median survival time, dose: 0.19 mg/kg/injection, schedule: Q01DX009 (ip), vehicle: saline) is 137 % of control; the T/C (T/C endpoint: median survival time, dose: 0.37 mg/kg/injection, schedule: Q01DX009 (ip), vehicle: saline) is 132 % of control; the T/C (T/C endpoint: median survival time, dose: 0.38 mg/kg/injection, schedule: Q01DX009 (ip), vehicle: saline) is 135 % of control; the T/C (T/C endpoint: median survival time, dose: 0.68 mg/kg/injection, schedule: Q01DX005 (ip), vehicle: saline) is 130 % of control; the T/C (T/C endpoint: median survival time, dose: 0.75 mg/kg/injection, schedule: Q01DX009 (ip), vehicle: Klucel (hydroxypropylcellulose) (HPC)) is 117, 143, 155, 163 % of control; the T/C (T/C endpoint: median survival time, dose: 0.75 mg/kg/injection, schedule: Q01DX009 (ip), vehicle: water) is 129 % of control. Also, the T/C was 146 % of control (T/C endpoint: median survival time, dose: 1.35 mg/kg/injection, schedule: Q01DX005 (ip), vehicle: saline); 128 % of control (T/C endpoint: median survival time, dose: 1.35 mg/kg/injection, schedule: Q01DX005 (iv), vehicle: saline); 143, 171, 182, 187 % of control (T/C endpoint: median survival time, dose: 1.5 mg/kg/injection, schedule: Q01DX009 (ip), vehicle: Klucel (hydroxypropylcellulose) (HPC)); 148 % of control (T/C endpoint: median survival time, dose: 2.7 mg/kg/injection, schedule: Q01DX005 (iv), vehicle: saline); 101 [4 of 6 alive], 160 [9 of 10 alive], 212, 214 % of control (T/C endpoint: median survival time, dose: 3.0 mg/kg/injection, schedule: Q01DX009 (ip), vehicle: Klucel (hydroxypropylcellulose) (HPC)); 146 % of control [9 of 10 alive] (T/C endpoint: median survival time, dose: 3.0 mg/kg/injection, schedule: Q01DX009 (ip), vehicle: saline). Also, the T/C is, setting by setting: (T/C endpoint: median survival time, dose: 3.0 mg/kg/injection, schedule: Q01DX009 (ip), vehicle: water) 147 % of control; (T/C endpoint: median survival time, dose: 4.5 mg/kg/injection, schedule: Q04DX003 (ip), vehicle: saline) 146 % of control [9 of 10 alive]. For the same compound, the survivor count is, setting by setting: (T/C endpoint: median survival time, dose: 0.56 mg/kg/injection, schedule: Q03HX024 (ip), vehicle: saline) 2 of 10; (T/C endpoint: median survival time, dose: 0.85 mg/kg/injection, schedule: Q03HX008 (ip), vehicle: saline) 0 of 10; (T/C endpoint: median survival time, dose: 1.13 mg/kg/injection, schedule: Q03HX024 (ip), vehicle: saline) 0 of 10; (T/C endpoint: median survival time, dose: 1.69 mg/kg/injection, schedule: Q03HX008 (ip), vehicle: saline) 0 of 10; (T/C endpoint: median survival time, dose: 2.25 mg/kg/injection, schedule: Q03HX024 (ip), vehicle: saline) 0 of 10; (T/C endpoint: median survival time, dose: 3.38 mg/kg/injection, schedule: Q03HX008 (ip), vehicle: saline) 0 of 10. In addition, the survivor count is 4 of 10 (T/C endpoint: median survival time, dose: 5.4 mg/kg/injection, schedule: Q01DX005 (ip), vehicle: saline); 1 of 10 (T/C endpoint: median survival time, dose: 5.4 mg/kg/injection, schedule: Q01DX005 (iv), vehicle: saline); 0 of 6, 1 of 6, 5 of 10, 4 of 6 (T/C endpoint: median survival time, dose: 6.0 mg/kg/injection, schedule: Q01DX009 (ip), vehicle: Klucel (hydroxypropylcellulose) (HPC)); 2 of 10, 3 of 10, 7 of 10 (T/C endpoint: median survival time, dose: 6.0 mg/kg/injection, schedule: Q01DX009 (ip), vehicle: saline); 5 of 10 (T/C endpoint: median survival time, dose: 6.75 mg/kg/injection, schedule: Q01DX001 (ip), vehicle: saline); 3 of 10 (T/C endpoint: median survival time, dose: 6.75 mg/kg/injection, schedule: Q01DX001 (iv), vehicle: saline). For the same compound, the survivor count (T/C endpoint: median survival time, dose: 6.75 mg/kg/injection, schedule: Q03HX008 (ip), vehicle: saline) is listed as 0 of 10; the survivor count (T/C endpoint: median survival time, dose: 9.0 mg/kg/injection, schedule: Q04DX003 (ip), vehicle: saline) was 1 of 10; the survivor count (T/C endpoint: median survival time, dose: 10.8 mg/kg/injection, schedule: Q01DX005 (ip), vehicle: saline) is listed as 0 of 10; the survivor count (T/C endpoint: median survival time, dose: 12.0 mg/kg/injection, schedule: Q01DX009 (ip), vehicle: saline) was 0 of 10; the survivor count (T/C endpoint: median survival time, dose: 13.5 mg/kg/injection, schedule: Q01DX001 (ip), vehicle: saline) is 3 of 10; the survivor count (T/C endpoint: median survival time, dose: 13.5 mg/kg/injection, schedule: Q01DX001 (iv), vehicle: saline) is 0 of 10. Further, the survivor count was 0 of 10 (T/C endpoint: median survival time, dose: 18.0 mg/kg/injection, schedule: Q04DX003 (ip), vehicle: saline); 0 of 10 (T/C endpoint: median survival time, dose: 27.0 mg/kg/injection, schedule: Q01DX001 (ip), vehicle: saline); 0 of 10 (T/C endpoint: median survival time, dose: 27.0 mg/kg/injection, schedule: Q01DX001 (iv), vehicle: saline); 0 of 10 (T/C endpoint: median survival time, dose: 48.0 mg/kg/injection, schedule: Q01DX009 (oral), vehicle: saline); 0 of 10 (T/C endpoint: median survival time, dose: 54.0 mg/kg/injection, schedule: Q01DX001 (ip), vehicle: saline).
Turning to `CC1CN(Br)C(=O)N(Br)C1=O` (centres undefined), where the note is “T/C endpoint: mean survival time, dose: 300.0 mg/kg/injection, schedule: Q01DX001 (ip), vehicle: saline”, the survivor count was 1 of 6.
Regarding `COc1cc([N+](=O)[O-])ccc1NC(=O)Nc1ccc(Cl)cc1`, the survivor count under setting [1] is recorded as 6 of 6 and the survivor count under setting [2] is 3 of 6.
In the case of `Nc1cccc(CCCCc2cccc(S(=O)(=O)F)c2)c1`, the survivor count under setting [3] is reported as 2 of 6.
For the compound `CC1C2C=CC(C2)C1C(=O)O` (centres undefined), under setting [2], the survivor count is 6 of 6.
Consider `O=c1[nH]c(=O)n(C2SC(CO)C(O)C2O)cc1F` (centres undefined), for which the T/C (T/C endpoint: mean survival time, dose: 600.0 mg/kg/injection, schedule: Q01DX009 (ip), vehicle: saline with Tween-80) is 128 % of control.
With `NNC(=O)c1cc(Cl)cc(C(=O)NN)n1`, the survivor count reads like this: (T/C endpoint: mean survival time, dose: 100.0 mg/kg/injection, schedule: Q01DX009 (ip), vehicle: saline with Tween-80) 0 of 6; (T/C endpoint: mean survival time, dose: 100.0 mg/kg/injection, schedule: Q04DX003 (ip), vehicle: saline sonified) 5 of 6; (T/C endpoint: mean survival time, dose: 200.0 mg/kg/injection, schedule: Q01DX009 (ip), vehicle: saline with Tween-80) 3 of 6; (T/C endpoint: mean survival time, dose: 200.0 mg/kg/injection, schedule: Q04DX003 (ip), vehicle: saline sonified) 4 of 6; (T/C endpoint: mean survival time, dose: 400.0 mg/kg/injection, schedule: Q04DX003 (ip), vehicle: saline sonified) 1 of 6.
Take `Cc1ccc(C(C)C)c(OCC2=NCCN2C)c1`: the survivor count (T/C endpoint: mean survival time, dose: 400.0 mg/kg/injection, schedule: Q04DX003 (ip), vehicle: saline) is on record as 1 of 6.
As to `CN(C)c1ccc(/C=N/NC(=O)NN)cc1`, the survivor count reads like this: (T/C endpoint: mean survival time, dose: 100.0 mg/kg/injection, schedule: Q04DX003 (ip), vehicle: saline with Tween-80) 6 of 6; under setting [1], 3 of 6; under setting [3], 0 of 6.
Consider `O=C1c2ccc([N+](=O)[O-])cc2-c2c1cccc2[N+](=O)[O-]`, for which the survivor count (T/C endpoint: mean survival time, dose: 100.0 mg/kg/injection, schedule: Q04DX002 (ip), vehicle: saline with Tween-80) is 3 of 3.
For `C=C(C)CNC1=C(C)C(=O)C2=C(C1=O)[C@@H](COC(N)=O)[C@]1(O)[C@H]3[C@@H](CN21)N3C` (some centres undefined), the T/C (T/C endpoint: mean survival time, dose: 50.0 mg/kg/injection, schedule: Q01DX001 (ip), vehicle: distilled water + Tween-80) is 138 % of control.
